No constants are given. Whether binding was seen depends on the method and setting. Some binding calls cover weakened binding; strength is not graded here. Where a sequence is shown, tags or fusion partners need not be part of it.
B1: DR591 Mono-Fc VHH (Fc fusion)
chain: QVQLQESGGGSVQAGGSLRLSCTASGAIASGYIDSRWCMAWFRQAPGKEREGVAAIWPGGGLTVYADSVKGRFTISRDHAKNTLYLQMNNLKPEDTAMYYCAAGSPRMCPSLEFGFDYWGQGTQVTVSS
notes: Mono-Fc format is not described further; also called anti-hGP130 Mono-Fc VHH; not shown: Fc part of the Mono-Fc format
B2: DR592 Mono-Fc VHH (Fc fusion)
chain: QVQLQESGGGSVQAGGSLRLSCTAPGFTSNSCGMDWYRQAPGKEREFVSSISTDGTTGYADSVKGRFTISKDKAKDTVYLQMNSLKPEDTGMYSCKTKDGTIATMELCDFGYWGQGTQVTVSS
notes: as for B1
B3: DR593 Mono-Fc VHH (Fc fusion)
chain: QVQLQESGGGSVQAGGSLRLSCAASGYPYSNGYMGWFRQAPGKEREGVATIYTGDGRTYYADSVKGRFTISRDNAKNTVDLQMSSLKPEDTAMYYCAARAAPLYSSGSPLTRARYNVWGQGTQVTVSS
notes: as for B1
B4: DR594 Mono-Fc VHH (Fc fusion)
chain: QVQLQESGGGSVQAGGSLRLSCVASASTYCTYDMHWYRQAPGKGREFVSAIDSDGTTRYADSVKGRFTISQGTAKNTVYLQMNSLQPEDTAMYYCKTVCVVGSRWSDYWGQGTQVTVSS
notes: as for B1
B5: DR595 Mono-Fc VHH (Fc fusion)
chain: QVQLQESGGGSVQAGGSLTLSCAASEYAYSTCNMGWYRQAPGKERELVSAFISDGSTYYADSVKGRFTITRDNAKNTVYLQMNSLKPEDTAIYYCSANCYRRLRNYWGQGTQVTVSS
notes: as for B1
B6: DR596 Mono-Fc VHH (Fc fusion)
chain: QVQLQESGGGLVQPGGSLRLSCTASGLTFDDSVMGWFRQAPGKGREAVSCISSSGANAFYADSVKGRFTISRDNAKNTLYLQMNSLKPEDTATYYCKRGHACAGYYPIPYDDYWGQGTQVTVSS
notes: as for B1

Chains of the proteins cited; added tags and fusions are not shown. Lines headed by an entry give the natural chain unless they say otherwise; changes in a name come on top.
UniProt P40189: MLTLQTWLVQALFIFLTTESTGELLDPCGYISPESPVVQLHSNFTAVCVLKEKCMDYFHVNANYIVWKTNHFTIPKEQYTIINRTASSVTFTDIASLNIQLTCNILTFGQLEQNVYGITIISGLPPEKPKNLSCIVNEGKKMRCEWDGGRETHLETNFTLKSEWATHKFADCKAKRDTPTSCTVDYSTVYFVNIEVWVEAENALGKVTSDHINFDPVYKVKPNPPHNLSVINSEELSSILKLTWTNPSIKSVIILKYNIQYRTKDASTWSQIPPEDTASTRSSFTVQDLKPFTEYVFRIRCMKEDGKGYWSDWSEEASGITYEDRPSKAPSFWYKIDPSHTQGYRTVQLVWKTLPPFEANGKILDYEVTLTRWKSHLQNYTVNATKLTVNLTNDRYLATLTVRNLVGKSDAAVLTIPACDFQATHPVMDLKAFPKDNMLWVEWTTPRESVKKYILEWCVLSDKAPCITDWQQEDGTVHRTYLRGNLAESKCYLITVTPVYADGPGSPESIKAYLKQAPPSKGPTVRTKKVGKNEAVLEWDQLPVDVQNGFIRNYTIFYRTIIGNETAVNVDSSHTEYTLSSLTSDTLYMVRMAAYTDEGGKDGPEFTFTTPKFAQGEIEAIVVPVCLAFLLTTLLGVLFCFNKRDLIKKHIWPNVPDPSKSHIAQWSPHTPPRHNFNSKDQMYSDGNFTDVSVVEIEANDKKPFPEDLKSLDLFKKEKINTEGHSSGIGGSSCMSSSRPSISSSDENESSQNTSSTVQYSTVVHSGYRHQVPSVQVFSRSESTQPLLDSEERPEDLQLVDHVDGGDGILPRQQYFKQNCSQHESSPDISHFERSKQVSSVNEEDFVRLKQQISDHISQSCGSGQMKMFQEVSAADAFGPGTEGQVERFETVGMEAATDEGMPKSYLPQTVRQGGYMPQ

These binders were tested against hGP130-his (Sino Biological, Catalog# 10974) (human) (UniProt P40189) (assay: SPR, summary sentence on Tables 6 and 7).

Binder	binding
B1	binds
B2	binds
B3	binds
B4	binds
B5	binds
B6	binds
